In PMC7680112 one finds binding data, which are given here for 1 substance.

Protein sequences, listed by entry. Tags and fused reporters are not part of them. Lines headed by an entry give the natural chain unless they say otherwise; changes in a name come on top.
UniProt Q99592: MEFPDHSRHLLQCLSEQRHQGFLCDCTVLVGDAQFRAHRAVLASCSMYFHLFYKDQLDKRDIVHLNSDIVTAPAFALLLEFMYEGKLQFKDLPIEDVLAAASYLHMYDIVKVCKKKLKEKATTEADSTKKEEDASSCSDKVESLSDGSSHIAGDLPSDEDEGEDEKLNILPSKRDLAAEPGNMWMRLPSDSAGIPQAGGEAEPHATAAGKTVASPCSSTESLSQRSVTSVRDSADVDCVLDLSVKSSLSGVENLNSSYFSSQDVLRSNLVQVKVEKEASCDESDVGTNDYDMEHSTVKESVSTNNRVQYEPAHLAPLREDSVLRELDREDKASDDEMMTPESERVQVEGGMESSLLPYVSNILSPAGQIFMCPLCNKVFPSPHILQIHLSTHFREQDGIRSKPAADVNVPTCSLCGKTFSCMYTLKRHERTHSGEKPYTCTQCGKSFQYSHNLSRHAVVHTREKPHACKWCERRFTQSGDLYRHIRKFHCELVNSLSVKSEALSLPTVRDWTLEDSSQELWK

For assay [1], the target named is ZBTB18 A502T (human) (UniProt Q99592). Nature of the assay: two-hybrid; pairwise yeast two-hybrid: DB-X baits (wt and mutant) against AD-Y preys; mated in YEPD for 24 h, plated on Sc-Leu-3AT and Sc-Leu-His-CHX (autoactivation test); three independent repeats, positive if scored at least twice.
For assay [2], the target named is ZBTB18 wild type (human) (UniProt Q99592). The description is as above.

These are yes or no findings as the source states them, for the method shown. Some entries that bind do so weakly or less than the wild type.

For CTBP2 (from UniProt P56545 1-445), the binding result in assay [1] is “no binding”; in assay [2] it was “binds”.
